According to patent US20260266848A1, “COMPOSITIONS AND METHODS FOR DIAGNOSING AND TREATING DYSTONIA” (Duke University, priority 2023, published 2026):

Test system: DYT1 patient plasma derived EVs
Assay: Plasma-derived EV proteomics (ExoQuick ULTRA, DIA LC/MS/MS), DYT1 vs Healthy Controls
Design: species or system human
Conditions: for Mean DYT1 / Mean HC: protein abundance; for Mean DYT1: DYT1 patients; for Mean HC: healthy controls (HC); for Log2FC: DYT1 patients as compared to healthy controls
Procedure: Data was obtained for extracellular vesicles using previously acquired samples. The ExoQuick® ULTRA EV Isolation System was used to fractionate and enrich EVs from plasma. Isolated plasma EV samples were then submitted to proteomic analysis by the Duke Proteomics and Metabolomics Core Facility (DPMCF). At the DPMCF, quantitative (LC/MS/MS) was performed on 500 ng of each sample, using an EvoSep One UPLC system coupled to a Thermo Orbitrap Astral high-resolution accurate mass tandem mass spectrometer (Thermo). Briefly, the sample was eluted directly from an Evotip which was subjected to a low organic wash and then subjected to an analytical separation using a 1.7 μm EvoSep 150 um ID×15 cm endurance (EveoSep) column running an SPD30 gradient from approximately 5 to 30% acetonitrile with 0.1% formic acid with a column temperature of 50 C. Data collection on the Orbitrap Astral mass spectrometer was performed in a data-independent acquisition (DIA) mode of acquisition with a r=240,000 (@m/z 200) full MS scan from m/z 380-980 with a target AGC value of 4e5 ions. Fixed DIA, windows of 4 m/z from m/z 380 to 980 DIA MS/MS scans were acquired in the Astral with a target AGC value of 5e4 and a max fill time of 6 ms. HCD collision energy setting of 27% was used for all MS2 scans.

Molecule	Mean DYT1	Mean HC	Log2FC	Directionality (Hs. Plasma EVs (DYT1/WT))	Log2_FC (Hs. Plasma EVs (DYT1/WT), protein level, human patient derived EVs by genotype)	Hs. Plasma EVs (DYT1/WT) (directionality of protein change, human plasma derived EVs, DYT1 vs WT(HC))
RNF216 (protein, UniProt Q9NWF9 1-866, looked up) E3 ubiquitin-protein ligase …: MEEGNNNEEVIHLNNFHCHRGQEWINLRDGPITISDSSDEERIPMLVTPAPQQHEEEDLDDDVILTEDDSEDDYGEFLDLGPPGISEFTKPSGQTEREPKPGPSHNQAANDIVNPRSEQKVIILEEGSLLYTESDPLETQNQSSEDSETELLSNLGESAALADDQAIEEDCWLDHPYFQSLNQQPREITNQVVPQERQPEAELGRLLFQHEFPGPAFPRPEPQQGGISGPSSPQPAHPLGEFEDQQLASDDEEPGPAFPMQESQEPNLENIWGQEAAEVDQELVELLVKETEARFPDVANGFIEEIIHFKNYYDLNVLCNFLLENPDYPKREDRIIINPSSSLLASQDETKLPKIDFFDYSKLTPLDQRCFIQAADLLMADFKVLSSQDIKWALHELKGHYAITRKALSDAIKKWQELSPETSGKRKKRKQMNQYSYIDFKFEQGDIKIEKRMFFLENKRRHCRSYDRRALLPAVQQEQEFYEQKIKEMAEHEDFLLALQMNEEQYQKDGQLIECRCCYGEFPFEELTQCADAHLFCKECLIRYAQEAVFGSGKLELSCMEGSCTCSFPTSELEKVLPQTILYKYYERKAEEEVAAAYADELVRCPSCSFPALLDSDVKRFSCPNPHCRKETCRKCQGLWKEHNGLTCEELAEKDDIKYRTSIEEKMTAARIRKCHKCGTGLIKSEGCNRMSCRCGAQMCYLCRVSINGYDHFCQHPRSPGAPCQECSRCSLWTDPTEDDEKLIEEIQKEAEEEQKRKNGENTFKRIGPPLEKPVEKVQRVEALPRPVPQNLPQPQMPPYAFAHPPFPLPPVRPVFNNFPLNMGPIPAPYVPPLPNVRVNYDFGPIHMPLEHNLPMHFGPQPRHRF	4.837	2.76	–	–	–	–
NECTIN1 (protein, UniProt Q15223 31-517, looked up) Nectin-1: QVVQVNDSMYGFIGTDVVLHCSFANPLPSVKITQVTWQKSTNGSKQNVAIYNPSMGVSVLAPYRERVEFLRPSFTDGTIRLSRLELEDEGVYICEFATFPTGNRESQLNLTVMAKPTNWIEGTQAVLRAKKGQDDKVLVATCTSANGKPPSVVSWETRLKGEAEYQEIRNPNGTVTVISRYRLVPSREAHQQSLACIVNYHMDRFKESLTLNVQYEPEVTIEGFDGNWYLQRMDVKLTCKADANPPATEYHWTTLNGSLPKGVEAQNRTLFFKGPINYSLAGTYICEATNPIGTRSGQVEVNITEFPYTPSPPEHGRRAGPVPTAIIGGVAGSILLVLIVVGGIVVALRRRRHTFKGDYSTKKHVYGNGYSKAGIPQHHPPMAQNLQYPDDSDDEKKAGPLGGSSYEEEEEEEEGGGGGERKVGGPHPKYDEDAKRPYFTVDEAEARQDGYGDRTLGYQYDPEQLDLAENMVSQNDGSFISKKEWYV	6.641	4.67	–	–	–	–
MPIG6B (protein, UniProt O95866 18-241, looked up) Megakaryocyte and platelet …: NPGASLDGRPGDRVNLSCGGVSHPIRWVWAPSFPACKGLSKGRRPILWASSSGTPTVPPLQPFVGRLRSLDSGIRRLELLLSAGDSGTFFCKGRHEDESRTVLHVLGDRTYCKAPGPTHGSVYPQLLIPLLGAGLVLGLGALGLVWWLHRRLPPQPIRPLPRFAPLVKTEPQRPVKEEEPKIPGDLDQEPSLLYADLDHLALSRPRRLSTADPADASTIYAVVV	7.965	6.14	1.8244	–	–	–
GP1BB (protein, UniProt P13224 26-206, looked up) Platelet glycoprotein Ib beta …: CPAPCSCAGTLVDCGRRGLTWASLPTAFPVDTTELVLTGNNLTALPPGLLDALPALRTAHLGANPWRCDCRLVPLRAWLAGRPERAPYRDLRCVAPPALRGRLLPYLAEDELRAACAPGPLCWGALAAQLALLGLGLLHALLLVLLLCRLRRLRARARARAAARLSLTDPLVAERAGTDES	6.766	5.43	–	–	–	–
ADAMTS19 (protein, UniProt Q8TE59 323-1213, looked up) A disintegrin and …: YSYKLPQEYNIETVVVADPAMVSYHGADAARRFILTILNMVFNLFQHKSLSVQVNLRVIKLILLHETPPELYIGHHGEKMLESFCKWQHEEFGKKNDIHLEMSTNWGEDMTSVDAAILITRKDFCVHKDEPCDTVGIAYLSGMCSEKRKCIIAEDNGLNLAFTIAHEMGHNMGINHDNDHPSCADGLHIMSGEWIKGQNLGDVSWSRCSKEDLERFLRSKASNCLLQTNPQSVNSVMVPSKLPGMTYTADEQCQILFGPLASFCQEMQHVICTGLWCKVEGEKECRTKLDPPMDGTDCDLGKWCKAGECTSRTSAPEHLAGEWSLWSPCSRTCSAGISSRERKCPGLDSEARDCNGPRKQYRICENPPCPAGLPGFRDWQCQAYSVRTSSPKHILQWQAVLDEEKPCALFCSPVGKEQPILLSEKVMDGTSCGYQGLDICANGRCQKVGCDGLLGSLAREDHCGVCNGNGKSCKIIKGDFNHTRGAGYVEVLVIPAGARRIKVVEEKPAHSYLALRDAGKQSINSDWKIEHSGAFNLAGTTVHYVRRGLWEKISAKGPTTAPLHLLVLLFQDQNYGLHYEYTIPSDPLPENQSSKAPEPLFMWTHTSWEDCDATCGGGERKTTVSCTKIMSKNISIVDNEKCKYLTKPEPQIRKCNEQPCQTRWMMTEWTPCSRTCGKGMQSRQVACTQQLSNGTLIRARERDCIGPKPASAQRCEGQDCMTVWEAGVWSECSVKCGKGIRHRTVRCTNPRKKCVLSTRPREAEDCEDYSKCYVWRMGDWSKCSITCGKGMQSRVIQCMHKITGRHGNECFSSEKPAAYRPCHLQPCNEKINVNTITSPRLAALTFKCLGDQWPVYCRVIREKNLCQDMRWYQRCCETCRDFYAQKLQQKS	10.077	8.43	–	–	–	–
ANO6 (protein, UniProt Q4KMQ2 1-910, looked up) Anoctamin-6: MKKMSRNVLLQMEEEEDDDDGDIVLENLGQTIVPDLGSLESQHDFRTPEFEEFNGKPDSLFFNDGQRRIDFVLVYEDESRKETNKKGTNEKQRRKRQAYESNLICHGLQLEATRSVLDDKLVFVKVHAPWEVLCTYAEIMHIKLPLKPNDLKNRSSAFGTLNWFTKVLSVDESIIKPEQEFFTAPFEKNRMNDFYIVDRDAFFNPATRSRIVYFILSRVKYQVINNVSKFGINRLVNSGIYKAAFPLHDCKFRRQSEDPSCPNERYLLYREWAHPRSIYKKQPLDLIRKYYGEKIGIYFAWLGYYTQMLLLAAVVGVACFLYGYLNQDNCTWSKEVCHPDIGGKIIMCPQCDRLCPFWKLNITCESSKKLCIFDSFGTLVFAVFMGVWVTLFLEFWKRRQAELEYEWDTVELQQEEQARPEYEARCTHVVINEITQEEERIPFTAWGKCIRITLCASAVFFWILLIIASVIGIIVYRLSVFIVFSAKLPKNINGTDPIQKYLTPQTATSITASIISFIIIMILNTIYEKVAIMITNFELPRTQTDYENSLTMKMFLFQFVNYYSSCFYIAFFKGKFVGYPGDPVYWLGKYRNEECDPGGCLLELTTQLTIIMGGKAIWNNIQEVLLPWIMNLIGRFHRVSGSEKITPRWEQDYHLQPMGKLGLFYEYLEMIIQFGFVTLFVASFPLAPLLALVNNILEIRVDAWKLTTQFRRLVPEKAQDIGAWQPIMQGIAILAVVTNAMIIAFTSDMIPRLVYYWSFSVPPYGDHTSYTMEGYINNTLSIFKVADFKNKSKGNPYSDLGNHTTCRYRDFRYPPGHPQEYKHNIYYWHVIAAKLAFIIVMEHVIYSVKFFISYAIPDVSKRTKSKIQREKYLTQKLLHENHLKDMTKNMGVIAERMIEAVDNNLRPKSE	7.713	9.33	–	DOWN	-0.7131	DOWN
SLC4A1 (protein, UniProt P02730 1-911, looked up) Band 3 anion transport protein: MEELQDDYEDMMEENLEQEEYEDPDIPESQMEEPAAHDTEATATDYHTTSHPGTHKVYVELQELVMDEKNQELRWMEAARWVQLEENLGENGAWGRPHLSHLTFWSLLELRRVFTKGTVLLDLQETSLAGVANQLLDRFIFEDQIRPQDREELLRALLLKHSHAGELEALGGVKPAVLTRSGDPSQPLLPQHSSLETQLFCEQGDGGTEGHSPSGILEKIPPDSEATLVLVGRADFLEQPVLGFVRLQEAAELEAVELPVPIRFLFVLLGPEAPHIDYTQLGRAAATLMSERVFRIDAYMAQSRGELLHSLEGFLDCSLVLPPTDAPSEQALLSLVPVQRELLRRRYQSSPAKPDSSFYKGLDLNGGPDDPLQQTGQLFGGLVRDIRRRYPYYLSDITDAFSPQVLAAVIFIYFAALSPAITFGGLLGEKTRNQMGVSELLISTAVQGILFALLGAQPLLVVGFSGPLLVFEEAFFSFCETNGLEYIVGRVWIGFWLILLVVLVVAFEGSFLVRFISRYTQEIFSFLISLIFIYETFSKLIKIFQDHPLQKTYNYNVLMVPKPQGPLPNTALLSLVLMAGTFFFAMMLRKFKNSSYFPGKLRRVIGDFGVPISILIMVLVDFFIQDTYTQKLSVPDGFKVSNSSARGWVIHPLGLRSEFPIWMMFASALPALLVFILIFLESQITTLIVSKPERKMVKGSGFHLDLLLVVGMGGVAALFGMPWLSATTVRSVTHANALTVMGKASTPGAAAQIQEVKEQRISGLLVAVLVGLSILMEPILSRIPLAVLFGIFLYMGVTSLSGIQLFDRILLLFKPPKYHPDVPYVKRVKTWRMHLFTGIQIICLAVLWVVKSTPASLALPFVLILTVPLRRVLLPLIFRNVELQCLDADDAKATFDEEEGRDEYDEVAMPV	9.918	7.62	2.2980	–	–	–
SLC25A11 (protein, UniProt Q02978 2-314, looked up) Mitochondrial …: AATASAGAGGIDGKPRTSPKSVKFLFGGLAGMGATVFVQPLDLVKNRMQLSGEGAKTREYKTSFHALTSILKAEGLRGIYTGLSAGLLRQATYTTTRLGIYTVLFERLTGADGTPPGFLLKAVIGMTAGATGAFVGTPAEVALIRMTADGRLPADQRRGYKNVFNALIRITREEGVLTLWRGCIPTMARAVVVNAAQLASYSQSKQFLLDSGYFSDNILCHFCASMISGLVTTAASMPVDIAKTRIQNMRMIDGKPEYKNGLDVLFKVVRYEGFFSLWKGFTPYYARLGPHTVLTFIFLEQMNKAYKRLFLSG	−1.129	0.20	–	–	–	–
